Some of the results follow.
Compound: Cc1cc(ccc1-c1ccccc1)C(=O)N1CCCN(CC1)C(=O)CCl [compound 10]
Test: probe-labelled cysteine peptide fold change vs DMSO (competition) (log2 fold change); higher = less target engagement (more negative = stronger competition)
Conditions: THP-1, incubation time: 4 h
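Further: competitive profiling in live THP-1 cells: cysteine peptides tagged with an iodoacetamide desthiobiotin (IA-DTB) probe, intensity after compound treatment relative to DMSO-treated cells.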

| Target | probe-labelled cysteine peptide fold change (10 µM) | probe-labelled cysteine peptide fold change (50 µM) |
| --- | --- | --- |
| CORO1C_Q9ULV4_283_NMQEPIALHEMDTSNGVLLPFYDPDTSIIYLCGK (UniProt Q9ULV4) | 0.153 | -0.118 |
| CSNK2B_P67870_114_VYCENQPMLPIGLSDIPGEAMVK (UniProt P67870) | -0.145 | -0.271 |
| CTNNA2_P26232_322_LESIISGAALMADSSCTR (UniProt P26232) | 0.11 | 0.278 |
| CRTAP_O75718_317_NAAPCAVSYLLFDQNDK (UniProt O75718) | -0.0243 | 0.372 |
| CRBN_Q96SW2_188_VQILPECVLPSTMSAVQLESLNK (UniProt Q96SW2) | -0.183 | -0.156 |
| CSE1L_P55060_842_KICAVGITK (UniProt P55060) | -0.141 | -0.665 |
| CSNK1A1_P48729_249_MSTPVEVLCK (UniProt P48729) | -0.234 | -0.0487 |
| CPSF2_Q9P2I0_763_IGLEGCLCQDFYR (UniProt Q9P2I0) | 0.182 | 0.0962 |
| CPSF2_Q9P2I0_187_EIHLNGCSLEMLSRPSLLITDSFNATYVQPR (UniProt Q9P2I0) | 0.0467 | -0.411 |
| CTAGE5_O15320_579_GESSCDR (UniProt Q96PC5+O15320) | -0.576 | 0.109 |
| CPSF6_Q16630_159_ELHGQNPVVTPCNK (UniProt Q16630) | 0.0316 | -0.159 |
| CPSF2_Q9P2I0_82_LGLNCAIYATIPVYK (UniProt Q9P2I0) |  | 0.326 |
| CORO1A_P31146_345_RCEPIAMTVPR (UniProt P31146) | -0.00998 | -0.138 |
| COX5B_P10606_93_IVGCICEEDNTSVVWFWLHK (UniProt P10606) | -0.0412 | -0.064 |

Source: the supplement of paper PMC12067093, “Discovery and optimisation of a covalent ligand for TRIM25 and its application to targeted protein ubiquitination” (Chemical Science, 2025)
